Measured values taken from patent publication US20080182806A1, “USE OF ACETYLATED OR ESTERIFICATED AZACYTIDINE, DECITABINE, OR OTHER NUCLEOSIDE ANALOGS AS ORAL AGENTS FOR THE TREATMENT OF TUMORS OR OTHER DYSPLASTIC SYNDROMES SENSITIVE TO HYPOMETHYLATING AGENTS” (Nevada Cancer Institute, priority 2007, published 2008).
Some results were stated once for a whole list of compounds, not compound by compound.

Tested on: global DNA methylation
Test: Global DNA methylation in mouse tissues (Epigentek Methylamp Global DNA Methylation Quantification Kit)
Format: in vivo, mice
Conditions: 38 mg/kg TAC p.o. or 25 mg/kg ACT i.v.
Description: The pharmacodynamic effect of TAC and ACT was determined at 24 and 48 hours following drug administration after the female C57/BL6 mice were euthanized, their tissues rapidly harvested, snap-frozen in liquid nitrogen, and stored at −80° C. The effect on methylation was determined by using the Epigentek Methylamp™ Global DNA Methylation Quantification Kit. Isolated genomic DNA from mouse tissues 24 or 48 hours after treatment with 25 mg/kg ACT i.v. and 38 mg/kg TAC p.o., methylation status was determined using 100 ng of each gDNA sample.

| SMILES | initial reduction in methylation in spleen |
| --- | --- |
| Nc1ncn([C@@H]2O[C@H](CO)[C@@H](O)[C@H]2O)c(=O)n1 [ACT, 4-amino-1-β-D-ribofuranosyl-1,3,5-triazin-2(1H)-one] | 25-30% |
| CC(=O)OC[C@H]1O[C@@H](n2cnc(N)nc2=O)[C@H](OC(C)=O)[C@@H]1OC(C)=O [TAC, 2′,3′,5′-triacetyl-5-azacytidine] | 25-30% |
